Data as given in patent US4317770A, “D-amino acid analogs of beta-endorphin” (Hoffmann-La Roche Inc., priority 1977, dated 1982).

Test system: mice
Assay: analgesic potency in mice, tail-flick method, icv injection
Assay type: in vivo, mouse
Conditions: calculated on molar basis using the AD50 of βc-endorphin as 100%
Procedure: The opiate activities of the analogs relative to βc -endorphin were measured in vitro in the guinea pig ileum (Brit. J. Pharmacol. 39, 398 (1970)) and in vivo by icv and iv injections using the tail-flick method (D'Amour and Smith, J. Pharmacol. Exp. Ther. 72,74 (1941). The results are summarized in Tables 2 and 3.
The analgesic properties of β-endorphin and its analogs were also assessed in mice by the tail-flick method of D'Amour and Smith, supra. The peptides, dissolved in saline, were injected either icv in a volume of 5 μl, according to the method described by Haley and McCormick, Brit. J. Pharmacol. 12, 12 (1957) or iv via the tail vein. To evaluate this analgesic response, a control latency (T0) was obtained from the mean of two latencies determined prior to drug injections, and the test latencies (T1) were determined at various times after injection for each animal. "Percent analgesic" was calculated as [(T1 -T0)/[…]]×100, where the cut off time (T2) was 10 sec.

For `CN1CC[C@]23c4c5ccc(O)c4O[C@H]2[C@@H](O)C=C[C@H]3[C@H]1C5.O=S(=O)(O)O` [Morphine sulfate, reference compound], the “Relative Potency (analgesic potency)” value was 2.9%.
